Data: PubChem BioAssay AID624291 (National Center for Advancing Translational Sciences (NCATS), 2012)
About 220 (0.063%) of roughly 350,000 compounds were called active. Inconclusive results, whose numbers are uncertain, are shown with a selection of clear calls. Calls come from the whole dose curve; as a rule, active = well fitted activation curve with a large enough effect; inconclusive = small, poorly fitted or top-dose-only effect; inactive = no such curve, though single readings can be large or run the other way. Potencies beside an inconclusive call are fits to weak or partial responses and may not hold up.

Assay: qHTS for Activators of Integrin-Mediated Alleviation for Muscular Dystrophy; note: nearly all actives have a fitted effect of over 60% in size
Conditions: alpha7betagal myoblasts, beta-gal FDG fluorescence, 48 h; series mostly up to 38.3 µM
Excerpt: Integrins are a diverse family of transmembrane cell surface receptors that mediate interactions between cells and the extracellular matrix. These heterodimeric proteins are composed of alpha and beta subunits and the a7b1 interacts with laminin in the extracellular matrix and actin of the cell cytoskeleton. Both chains contribute to ligand binding, but the alpha chain mediates the specificity of the interaction. The alpha7beta1 integrin is a major laminin receptor in skeletal, cardiac and vascular smooth muscle. Mutations in the alpha7 integrin gene are responsible for muscular dystrophy in both humans and mice. The alpha7beta1 integrin is also a major modifier of muscle disease progression in various muscle diseases including Duchenne muscular dystrophy, Fukuyama muscular dystrophy and merosin deficient congenital muscular dystrophy type 1A. […] Transcriptional regulation of the alpha7 integrin gene is poorly understood and probably involves multiple transcription factors. The goal of identifying small molecules that enhance alpha7 integrin expression is two-fold: firstly, such molecules would help us gain insight into the complex transcriptional control of alpha7 integrin. It is known that alpha7 integrin expression is tightly controlled during various stages of development, disease and in response to external stimuli. The second goal of the project is to translate the above finding into a therapeutic strategy for muscular dystrophy. […] Thus this project aims to discover small molecule probes that would not only help in gaining a better understanding of the complex regulatory mechanism of alpha7 integrin expression, but also lead to development of pharmacological agents to fight muscular dystrophy. NIH Chemical Genomics Center [NCGC] NIH Molecular Libraries Probe Centers Network [MLPCN] MLPCN Grant: NS058429 Assay Submitter (PI): Dean Burkin, University of Nevada School of Medicine
A total of 250 alpha7betagal+/- myoblasts at passage 13 were dispensed using a mulitdrop from Thermo into black low base tissue culture treated microclear aurora plates in 6 ul media containing DMEM without phenol, 5% FBS, 1x GluMax and 1x Penicillin/Streptomycin. The plates were incubated 16-24 hr at 37C, 5% CO2, 95% humidity covered with low evaporation stainless steel lids from Kalypsys. Compounds were then dispensed using a Kalypsys pintool to deliver 23 nl/well compounds in DMSO (diluted into 6 uL resulting in a 1:260 dilution of compound). The control compound used was the cdk2 inhibitor SU9516 from Tocirs (found in the initial LOPAC screen). The plates were incubated for 48 hours at 37C, 5% CO2, 95% humidity using the same stainless steel lids. After incubation with compound, 5 ul of the media was aspirated using the Kalypsys washer/dispenser and 3 ul of the Mammalian Protein Extraction Reagent (MPER) lysis buffer (Thermo Fisher) was added. The plates were spun at 2000 rpms to remove bubbles and an initial capture was acquired on the Viewlux (Perkin Elmer) with exciation at 480 nm and emission at 540 nm for 25 seconds to omit any auto fluorescent compounds. The plates were then incubated for 10 minutes at room temperature. After incubation, 3 ul of 125 uM Fluorescein di-galactoside (FDG) (Marker Gene Technologies) diluted in PBS with 2 mM MgCl2 and 0.2% betamercaptoethanol (BME) was added, the plates were spun at 2000 rpms and incubated for 30 minutes at room temperature. The plates were again read on the Viewlux with exciation at 480 nm and emission at 540 nm for 25 seconds.
Potency is the fitted concentration of half-maximal effect.

| SMILES | Potency |
| --- | --- |
| COc1ccc(NC(=O)NC(=O)c2ccccc2)cc1 | inconclusive: 2 µM [activator, partial curve, poor fit] |
| Cc1cc(NC(=O)CN2CCN(c3ccccn3)CC2)ccc1Br | inactive |
| COc1ccc2c(c1)CCC/C2=N/OC(=O)c1ccccc1OC | inactive |
| COc1ccc(NC(=O)CSc2nc(N)c(C#N)cc2C#N)cc1 | inactive |
| O=C(Nc1ccon1)c1cccc(S(=O)(=O)N2CCCCC2)c1 | inconclusive: 0.708 µM [activator, partial curve, poor fit] |
| COc1ccccc1CC(=O)N1CCN(c2ccccc2F)CC1 | inconclusive: 28.2 µM [activator, single point] |
| CC(C)(C)c1ccc(OCCCC(=O)N2CCOCC2)cc1 | inconclusive: 15.8 µM [activator, single point] |
| Cc1cc(C)n(CC(=O)NCc2ccccc2)c(=O)c1C#N | inconclusive: 28.2 µM [activator, single point] |
| O=C(NCCc1ccccc1)c1ccnc(/C=N/O)c1 | inconclusive: 3.55 µM [activator, full curve, poor fit] |
| CCOC(=O)CSc1nc2sc3c(c2c(=O)n1-c1ccc(OC)cc1)CCN(C)C3 | inconclusive: 3.16 µM [activator, partial curve, poor fit] |
| CCc1ccc(Nc2nnc(SCC(=O)N(C)C3CCS(=O)(=O)C3)s2)cc1 (stereo unspecified) | inconclusive: 12.6 µM [activator, partial curve, poor fit] |
| Cc1ccc(Oc2ncccc2NC(=O)CC(CC(=O)O)c2ccccc2)c2c1CCC2 (stereo unspecified) | inconclusive: 5.01 µM [activator, single point] |
| CCN(CC)S(=O)(=O)c1ccc(OC)c(NC(=O)CCc2c(C)noc2C)c1 | inconclusive: 5.01 µM [activator, single point] |
| CCOC(=O)c1[nH]c(COC(=O)CCCOc2ccccc2)c(C(=O)OCC)c1C | inconclusive: 10 µM [activator, partial curve, poor fit] |
| O=C(CNC(=S)N(CCCN1CCOCC1)Cc1cccs1)NC1CCCCC1 | inactive |
| CC(C)CNC(=S)NC1CC2CCCC(C1)N2C1CCCCC1 (stereo unspecified) | inactive |
| COc1ccc(N2CCN(C(=O)c3cccc4nc(C)oc34)CC2)cc1 | inconclusive: 0.355 µM [activator, full curve, poor fit] |
| CCCCCn1c(=O)[nH]c2cc(C(=O)N3CCN(C(=O)OCC)CC3)ccc2c1=O | inconclusive: 2.51 µM [activator, partial curve, poor fit] |
| C[C@H](NC(=O)[C@H](Cc1ccccc1)NC(=O)c1cc2cc(Cl)ccc2n1C)C(=O)O | inconclusive: 2.82 µM [activator, partial curve, poor fit] |
| COc1ccc(-c2csc(NC(=O)c3ccccc3NS(=O)(=O)c3ccc(F)c(F)c3)n2)cc1 | inactive |
| CS(=O)(=O)N(CC(=O)NCc1ccccc1Cl)C1CCCCC1 | inactive |
| CCOC(=O)c1ccc([N+](=O)[O-])c(CS(=O)(=O)c2ccc(Cl)cc2)c1 | inconclusive: 1.41 µM [activator, full curve, poor fit] |
| Cc1cc2n(n1)C(c1ccccc1)CC(c1ccc(Br)cc1)=N2 (stereo unspecified) | inactive |
| COc1ccc(N=Nc2ccc(N)nc2N)cc1 | inconclusive: 3.98 µM [activator, partial curve] |

| SMILES | Potency |
| --- | --- |
| C/C(=N\N1CCN(Cc2ccccc2)CC1)c1ccco1 | inconclusive: 1.41 µM [activator, full curve, poor fit] |
| FC(F)(F)c1cccc(-n2cc(-c3ccccc3)[nH]c2=S)c1 | inactive |
| COc1ccc(C2CCc3cc4c(cc3C2=NOC(C)=O)OCO4)cc1OC (stereo unspecified) | inconclusive: 3.16 µM [activator, single point] |
| CC(C)(CNC(=O)COc1ccccc1Cc1ccccc1)N1CCOCC1 | inconclusive: 12.6 µM [activator, single point] |
| COc1ccc(C(=O)Cn2cc([N+](=O)[O-])nc2C)cc1 | inconclusive: 5.01 µM [activator, single point] |
| Cc1cccc(NC(=S)NC2CC3CCCC(C2)N3Cc2cccs2)c1C (stereo unspecified) | inactive |
| CCN(C(=O)c1cnc(N2CCN(c3ncccn3)CC2)c2ccccc12)c1cccc(Cl)c1 | inactive |
| COc1ccc(CCC(=O)NCC2CCCCC2)cc1OC | inconclusive: 28.2 µM [activator, single point] |
| COc1ccc(CC(=O)NNC(=O)c2ccc(Br)s2)cc1OC | inconclusive: 3.55 µM [activator, single point] |
| CCOc1ccc(N/C=C/C(=O)c2ccc(OC)c(OC)c2)cc1 | inconclusive: 25.1 µM [activator, single point] |
| CCCC[N+](CC#Cc1ccccc1)(CCCC)CCCS(=O)(=O)[O-] | inconclusive: 2.51 µM [activator, full curve, poor fit] |
| O=C(O)CC/C(=N/Nc1ncc(C(F)(F)F)cc1Cl)C(=O)O | inactive |
| COc1ccccc1N(CC(=O)NC(C)(C)C)S(=O)(=O)c1cccs1 | inconclusive: 3.55 µM [activator, single point] |
| O=C(CN1CCc2ccccc21)NC(=O)NC1CCCCC1 | inconclusive: 1.12 µM [activator, partial curve, poor fit] |
| COc1ccc(/C=N\N2CCN(Cc3ccccc3Cl)CC2)cc1 | inconclusive: 3.16 µM [activator, single point] |
| O=C(COc1ccccc1Cl)NNC(=O)C1CCCO1 (stereo unspecified) | inconclusive: 10 µM [activator, single point] |
| CCOC(=O)c1cnc2ccccc2c1Nc1cccc(C(=O)O)c1 | inactive |
| Cc1ccc(CNC(=O)C2CCCN(S(=O)(=O)c3c(C)[nH]c(=O)[nH]c3=O)C2)cc1 (stereo unspecified) | inactive |
| COc1ccc(-c2noc(CN(C(=O)c3cccs3)C(C)C)n2)cc1 | inconclusive: 5.01 µM [activator, single point] |
| Cc1cc(C(=O)CN2CCCCC2)c(C)n1-c1ccc(F)cc1 | inactive |
| COc1cccc(NC(=O)c2ccc3c(c2)C(=O)N(CC2CCCO2)C3=O)c1 (stereo unspecified) | inconclusive: 3.98 µM [activator, single point] |
| N#Cc1ccccc1S(=O)(=O)N1CCN(S(=O)(=O)c2ccc(Br)c(C(=O)O)c2)CC1 | inconclusive: 5.01 µM [activator, single point] |
| O=C(c1cnc2sccn2c1=O)N1CCCc2ccccc21 | inactive |
| COc1cc2nc(CN(C)Cc3ccc(OC)c(OC)c3OC)[nH]c(=O)c2cc1OC | inactive |

5 entries already listed, arranged by length of the SMILES, rising.

| SMILES | Potency |
| --- | --- |
| COc1ccc(/C=N\N2CCN(Cc3ccccc3Cl)CC2)cc1 | inconclusive: 3.16 µM [activator, single point] |
| COc1ccc(C(=O)Cn2cc([N+](=O)[O-])nc2C)cc1 | inconclusive: 5.01 µM [activator, single point] |
| FC(F)(F)c1cccc(-n2cc(-c3ccccc3)[nH]c2=S)c1 | inactive |
| COc1ccccc1N(CC(=O)NC(C)(C)C)S(=O)(=O)c1cccs1 | inconclusive: 3.55 µM [activator, single point] |
| CCN(C(=O)c1cnc(N2CCN(c3ncccn3)CC2)c2ccccc12)c1cccc(Cl)c1 | inactive |

Further compounds follow.

| SMILES | Potency |
| --- | --- |
| Cc1cccnc1NC(=O)c1ccc(S(=O)(=O)N2CCCCC2)cc1 | inactive |
| CN1C(=O)C(=O)/C(=C(/O)c2ccc(Br)cc2)C1c1ccccc1F (stereo unspecified) | inconclusive: 5.01 µM [activator, single point] |
| CCn1cc(S(=O)(=O)c2ccc(OC)cc2)c(=O)c2cc(OC)ccc21 | inconclusive: 28.2 µM [activator, single point] |
| Cc1c(C(=O)N2CCN(c3ccc(F)cc3)CC2)sc2ncnc(N3CCN(c4ccccn4)CC3)c12 | inactive |
| CC1CN(C(=O)c2cc3c(=O)n4ccccc4nc3s2)CC(C)O1 (stereo unspecified) | inactive |
| COc1ccc(C)cc1NC(=O)COC(=O)c1ccc2ccccc2n1 | inconclusive: 5.01 µM [activator, single point] |
| CCOc1ccc(Br)cc1/C=N/O | inactive |
| COc1ccccc1N=Nc1nc(-c2ccccc2)c(-c2ccccc2)[nH]1 | inconclusive: 0.891 µM [activator, partial curve, poor fit] |
| Cc1ccc(/C=C/c2nc3sc(C(=O)O)c(C)c3c(=O)[nH]2)cc1[N+](=O)[O-] | inconclusive: 12.6 µM [activator, partial curve, poor fit] |
| O=C(N/N=C/c1ccc(OC(F)F)cc1OC(F)F)NC1CCCCC1 | inactive |
| Cc1c(C(=O)Nc2c(F)cccc2F)sc2ncn(CC(=O)N3CCCCC3)c(=O)c12 | inconclusive: 28.2 µM [activator, single point] |
| COc1ccc(C2C=C(C)Nc3nc(SC)nn32)cc1 (stereo unspecified) | inactive |
| COc1ccc(CNCCS(=O)(=O)NC2CCCC2)cc1 | inactive |
| CCCc1c(C(=O)OCC)sc(N)c1C#N | inconclusive: 28.2 µM [activator, single point] |
| O=C1c2ccccc2C(Nc2ccc(S(=O)(=O)N3CCCCC3)cc2)N1Cc1ccco1 (stereo unspecified) | inconclusive: 28.2 µM [activator, single point] |
| COc1ccccc1NS(=O)(=O)c1ccc(C)c(NC(=O)c2c(C)noc2C)c1 | inconclusive: 3.55 µM [activator, single point] |
| Cc1nn(CC(=O)Nc2ccc3c(c2)OCCO3)c(C)c1[N+](=O)[O-] | inactive |
| c1ccc(CN2CCN(C(c3ccccc3)c3ccccc3)CC2)cc1 | inactive |
| CN(NC(=O)Nc1ccccc1)c1cnn(C)c(=O)c1Cl | inconclusive: 22.4 µM [activator, single point] |
| COCCNC(=O)/C(C#N)=C1\N=C(NC(=O)c2cccs2)c2ccccc21 | inconclusive: 3.16 µM [activator, single point] |
| CN(CC(=O)Nc1ccc2c(c1)OCO2)S(=O)(=O)c1cccs1 | inactive |
| COc1cccc(/C=C2\SC(=O)N(CC(=O)NCCCn3ccnc3)C2=O)c1 | inconclusive: 5.01 µM [activator, single point] |
| CC(C)C(O)(CC#CCN1CCCC1)c1ccccc1 (stereo unspecified) | inconclusive: 12.6 µM [activator, single point] |

Shown bar-delimited: 2 of the compounds above
SMILES | Potency
CCOC(=O)CSc1nc2sc3c(c2c(=O)n1-c1ccc(OC)cc1)CCN(C)C3 | inconclusive: 3.16 µM [activator, partial curve, poor fit]
CCc1ccc(Nc2nnc(SCC(=O)N(C)C3CCS(=O)(=O)C3)s2)cc1 (stereo unspecified) | inconclusive: 12.6 µM [activator, partial curve, poor fit]
